Test results: the supplement of paper PMC11438910
This is one part of the list. Only a few entries rise above the background.

Legend:
Experiment in all cases: fluorescence intensity of antibody binding to polysaccharide-coupled beads; higher = stronger binding
[1] = molecular target: pneumococcal polysaccharide Pn6D
[2] = molecular target: pneumococcal polysaccharide Pn7A
[3] = molecular target: pneumococcal polysaccharide Pn7B
[4] = molecular target: pneumococcal polysaccharide Pn7C
[5] = molecular target: pneumococcal polysaccharide Pn7F
[6] = molecular target: pneumococcal polysaccharide Pn8
[7] = molecular target: pneumococcal polysaccharide Pn9A
[8] = molecular target: pneumococcal polysaccharide Pn9L
[9] = molecular target: pneumococcal polysaccharide Pn9N
[10] = molecular target: pneumococcal polysaccharide Pn9V
[11] = antibody concentration 0.1 ng/mL
[12] = antibody concentration 0.534724 ng/mL
[13] = antibody concentration 2.8593 ng/mL
[14] = antibody concentration 15.2894 ng/mL
[15] = antibody concentration 81.7561 ng/mL
[16] = antibody concentration 437.17 ng/mL
[17] = antibody concentration 2337.65 ng/mL
[18] = antibody concentration 12500 ng/mL

B1: 3S41.3 (protein)
chain 1: EVQLVESGGGLVQPGGSLRLSCATSGFTFSNYWMYWFRQAPGKGLEWVSTISGSSSNTYYPDSVKGRFTISRDNAKNTLYLQINSLRAEDTAVYYCARRHDHSSGWAFDYWGQGVLVTVSS
chain 2: EIVMTQSPATLSLSPGERATLSCRASQSVGSNLAWYQQKPGQAPKLLIYDASSRATGIPDRFSGSGSGTDFTLTVSSLEPEDVGVYYCQQYNNWKTFGQGTKVEIK
[1]; [11]
  fluorescence intensity: 16 MFI
[1]; [12]
  fluorescence intensity: 16.2 MFI
[1]; [13]
  fluorescence intensity: 16 MFI
[1]; [14]
  fluorescence intensity: 18 MFI
[1]; [15]
  fluorescence intensity: 19 MFI
[1]; [16]
  fluorescence intensity: 19 MFI
[1]; [17]
  fluorescence intensity: 24 MFI
[1]; [18]
  fluorescence intensity: 50.5 MFI
[2]; [11]
  fluorescence intensity: 20.5 MFI
[2]; [12]
  fluorescence intensity: 19.8 MFI
[2]; [13]
  fluorescence intensity: 18.5 MFI
[2]; [14]
  fluorescence intensity: 21.2 MFI
[2]; [15]
  fluorescence intensity: 22.5 MFI
[2]; [16]
  fluorescence intensity: 70.5 MFI
[2]; [17]
  fluorescence intensity: 582 MFI
[2]; [18]
  fluorescence intensity: 1840 MFI
[3]; [11]
  fluorescence intensity: 16.5 MFI
[3]; [12]
  fluorescence intensity: 15 MFI
[3]; [13]
  fluorescence intensity: 15 MFI
[3]; [14]
  fluorescence intensity: 14.8 MFI
[3]; [15]
  fluorescence intensity: 16.5 MFI
[3]; [16]
  fluorescence intensity: 21.5 MFI
[3]; [17]
  fluorescence intensity: 55.2 MFI
[3]; [18]
  fluorescence intensity: 270 MFI
[4]; [11]
  fluorescence intensity: 17 MFI
[4]; [12]
  fluorescence intensity: 16.2 MFI
[4]; [13]
  fluorescence intensity: 16 MFI
[4]; [14]
  fluorescence intensity: 16.8 MFI
[4]; [15]
  fluorescence intensity: 15.8 MFI
[4]; [16]
  fluorescence intensity: 21 MFI
[4]; [17]
  fluorescence intensity: 66 MFI
[4]; [18]
  fluorescence intensity: 259 MFI
[5]; [11]
  fluorescence intensity: 13.5 MFI
[5]; [12]
  fluorescence intensity: 13.5 MFI
[5]; [13]
  fluorescence intensity: 14.5 MFI
[5]; [14]
  fluorescence intensity: 14.5 MFI
[5]; [15]
  fluorescence intensity: 19.5 MFI
[5]; [16]
  fluorescence intensity: 95 MFI
[5]; [17]
  fluorescence intensity: 1000 MFI
[5]; [18]
  fluorescence intensity: 1750 MFI
[6]; [11]
  fluorescence intensity: 21.5 MFI
[6]; [12]
  fluorescence intensity: 22 MFI
[6]; [13]
  fluorescence intensity: 21.8 MFI
[6]; [14]
  fluorescence intensity: 21.5 MFI
[6]; [15]
  fluorescence intensity: 24.8 MFI
[6]; [16]
  fluorescence intensity: 32 MFI
[6]; [17]
  fluorescence intensity: 52 MFI
[6]; [18]
  fluorescence intensity: 112 MFI
[7]; [11]
  fluorescence intensity: 19 MFI
[7]; [12]
  fluorescence intensity: 19 MFI
[7]; [13]
  fluorescence intensity: 19 MFI
[7]; [14]
  fluorescence intensity: 19.5 MFI
[7]; [15]
  fluorescence intensity: 18.2 MFI
[7]; [16]
  fluorescence intensity: 27.5 MFI
[7]; [17]
  fluorescence intensity: 89 MFI
[7]; [18]
  fluorescence intensity: 358 MFI
[8]; [11]
  fluorescence intensity: 17 MFI
[8]; [12]
  fluorescence intensity: 17 MFI
[8]; [13]
  fluorescence intensity: 16.2 MFI
[8]; [14]
  fluorescence intensity: 17.8 MFI
[8]; [15]
  fluorescence intensity: 17.5 MFI
[8]; [16]
  fluorescence intensity: 20.8 MFI
[8]; [17]
  fluorescence intensity: 56 MFI
[8]; [18]
  fluorescence intensity: 167 MFI
[9]; [11]
  fluorescence intensity: 14.5 MFI
[9]; [12]
  fluorescence intensity: 15 MFI
[9]; [13]
  fluorescence intensity: 15 MFI
[9]; [14]
  fluorescence intensity: 14.5 MFI
[9]; [15]
  fluorescence intensity: 15.2 MFI
[9]; [16]
  fluorescence intensity: 20.5 MFI
[9]; [17]
  fluorescence intensity: 66 MFI
[9]; [18]
  fluorescence intensity: 229 MFI
[10]; [11]
  fluorescence intensity: 14.5 MFI
[10]; [12]
  fluorescence intensity: 13.5 MFI
[10]; [13]
  fluorescence intensity: 14.8 MFI
[10]; [14]
  fluorescence intensity: 15 MFI
[10]; [15]
  fluorescence intensity: 16 MFI
[10]; [16]
  fluorescence intensity: 20 MFI
[10]; [17]
  fluorescence intensity: 27.5 MFI
[10]; [18]
  fluorescence intensity: 38 MFI
